Reference: the supplement of paper PMC4604168 (melanoma cell lines)
Some of the results follow. Many values rest on one well or one pass, so single values are uncertain.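 The apoptosis fraction was the count of cleaved-PARP antibody-stained nuclei relative to all DNA-stained nuclei, imaged in 1,536-well plates. Screening doses were set so most cells survived, and baseline and induced cleaved-PARP levels vary greatly across cell lines.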

Test system: CBRC034 (line from a melanoma biopsy)
Assay: cleaved PARP positive nuclei fraction relative to DMSO control; melanoma cells; higher = more apoptosis
Conditions: library dose: low library concentration; 72 h

| SMILES | cleaved PARP positive nuclei fraction [%] |
| --- | --- |
| COc1cc([C@@H]2c3cc4c(cc3[C@@H](O[C@@H]3O[C@@H]5CO[C@@H](C)O[C@H]5[C@H](O)[C@H]3O)[C@H]3COC(=O)[C@H]23)OCO4)cc(OC)c1O [etoposide] + CO[C@H]1C[C@@H]2CC[C@@H](C)[C@@](O)(O2)C(=O)C(=O)N2CCCC[C@H]2C(=O)O[C@H]([C@H](C)C[C@@H]2CC[C@@H](OCCO)[C@H](OC)C2)CC(=O)[C@H](C)/C=C(\C)[C@@H](O)[C@@H](OC)C(=O)[C@H](C)C[C@H](C)/C=C/C=C/C=C/1C [everolimus] (first compound 0.02 µM, partner dose 0.02 µM) | 71.2 |
| Cc1cn(-c2cc(NC(=O)c3ccc(C)c(Nc4nccc(-c5cccnc5)n4)c3)cc(C(F)(F)F)c2)cn1 [nilotinib] + Nc1cccc2c1CN(C1CCC(=O)NC1=O)C2=O [lenalidomide] (first compound 0.2 µM, partner dose 1 µM) | 66.6 |
| Cc1ccc(Nc2nccc(N(C)c3ccc4c(C)n(C)nc4c3)n2)cc1S(N)(=O)=O [Pazopanib] + CNC(=O)c1cc(Oc2ccc(NC(=O)Nc3ccc(Cl)c(C(F)(F)F)c3)cc2)ccn1 [sorafenib] (first compound 0.4 µM, partner dose 0.4 µM) | 127 |
| O=c1[nH]nc(Sc2ncc([N+](=O)[O-])s2)n1-c1ccc2c(c1)OCCO2 + CS(=O)(=O)c1ccc(C(=O)Nc2ccc(Cl)c(-c3ccccn3)c2)c(Cl)c1 [vismodegib] (first compound 0.2 µM, partner dose 1 µM) | 136 |

Test system: COLO792
Assay: as above
Conditions: library dose: low library concentration; 72 h

| SMILES | cleaved PARP positive nuclei fraction [%] |
| --- | --- |
| Cc1cn(-c2cc(NC(=O)c3ccc(C)c(Nc4nccc(-c5cccnc5)n4)c3)cc(C(F)(F)F)c2)cn1 [nilotinib] + CNC(=O)c1cc(Oc2ccc(NC(=O)Nc3ccc(Cl)c(C(F)(F)F)c3)cc2)ccn1 [sorafenib] (first compound 0.2 µM, partner dose 0.4 µM) | 81.1 |
| O=c1[nH]nc(Sc2ncc([N+](=O)[O-])s2)n1-c1ccc2c(c1)OCCO2 + Nc1nc(F)nc2c1ncn2[C@@H]1O[C@H](CO)[C@@H](O)[C@@H]1O [fludarabine] (first compound 0.2 µM, partner dose 0.2 µM) | 97.5 |
| Cc1cn(-c2cc(NC(=O)c3ccc(C)c(Nc4nccc(-c5cccnc5)n4)c3)cc(C(F)(F)F)c2)cn1 [nilotinib] + CCCS(=O)(=O)Nc1ccc(F)c(C(=O)c2c[nH]c3ncc(Cl)cc23)c1F [PLX4720] (first compound 0.2 µM, partner dose 0.08 µM) | 95.3 |
| O=C(Nc1cc(C(F)(F)F)cc(C(F)(F)F)c1)c1cc(Cl)ccc1O + CC(=O)O[C@@]12CO[C@@H]1C[C@H](O)[C@@]1(C)C(=O)[C@H](O)C3=C(C)[C@@H](OC(=O)[C@H](O)[C@@H](NC(=O)OC(C)(C)C)c4ccccc4)C[C@@](O)([C@@H](OC(=O)c4ccccc4)[C@H]21)C3(C)C [Docetaxel] (first compound 0.016 µM, partner dose 0.0001 µM) | 542 |
| O=C(/C=C/c1cccnc1)NCCCCC1CCN(C(=O)c2ccccc2)CC1 + Nc1nc(F)nc2c1ncn2[C@@H]1O[C@H](CO)[C@@H](O)[C@@H]1O [fludarabine] (first compound 0.01 µM, partner dose 0.2 µM) | 333 |
| N#CC[C@H](C1CCCC1)n1cc(-c2ncnc3[nH]ccc23)cn1 [ruxolitinib] + NC1(c2ccc(-c3nc4ccn5c(=O)[nH]nc5c4cc3-c3ccccc3)cc2)CCC1 [MK2206] (first compound 1 µM, partner dose 0.4 µM) | 135 |
| CCCCCCCCCCCCCCCCCCOP(=O)([O-])OC1CC[N+](C)(C)CC1 [Perifosine] + Cn1c(=O)n(-c2ccc(C(C)(C)C#N)cc2)c2c3cc(-c4cnc5ccccc5c4)ccc3ncc21 [NVP-BEZ235] (first compound 0.4 µM, partner dose 0.004 µM) | 40.7 |
| CC[C@]1(O)C[C@H]2CN(CCc3c([nH]c4ccccc34)[C@@](C(=O)OC)(c3cc4c(cc3OC)N(C=O)[C@H]3[C@@](O)(C(=O)OC)[C@H](OC(C)=O)[C@]5(CC)C=CCN6CC[C@]43[C@@H]65)C2)C1 [vincristine] + CC(=O)O[C@@]12CO[C@@H]1C[C@H](O)[C@@]1(C)C(=O)[C@H](O)C3=C(C)[C@@H](OC(=O)[C@H](O)[C@@H](NC(=O)OC(C)(C)C)c4ccccc4)C[C@@](O)([C@@H](OC(=O)c4ccccc4)[C@H]21)C3(C)C [Docetaxel] (first compound 0.0001 µM, partner dose 0.0001 µM) | 416 |
| CCCCCCCCCCCCCCCCCCOP(=O)([O-])OC1CC[N+](C)(C)CC1 [Perifosine] + CO[C@H]1C[C@@H]2CC[C@@H](C)[C@@](O)(O2)C(=O)C(=O)N2CCCC[C@H]2C(=O)O[C@H]([C@H](C)C[C@@H]2CC[C@@H](OCCO)[C@H](OC)C2)CC(=O)[C@H](C)/C=C(\C)[C@@H](O)[C@@H](OC)C(=O)[C@H](C)C[C@H](C)/C=C/C=C/C=C/1C [everolimus] (first compound 0.4 µM, partner dose 0.02 µM) | 187 |
| Cc1ccc(Nc2nccc(N(C)c3ccc4c(C)n(C)nc4c3)n2)cc1S(N)(=O)=O [Pazopanib] + CS(=O)(=O)CCNCc1ccc(-c2ccc3ncnc(Nc4ccc(OCc5cccc(F)c5)c(Cl)c4)c3c2)o1 [lapatinib] (first compound 0.4 µM, partner dose 0.8 µM) | 97.6 |
| N#CC[C@H](C1CCCC1)n1cc(-c2ncnc3[nH]ccc23)cn1 [ruxolitinib] + C[C@]1(c2nc3c(C(N)=O)cccc3[nH]2)CCCN1 [Veliparib] (first compound 1 µM, partner dose 1.4 µM) | 84.8 |
| CC[C@]1(O)C[C@H]2CN(CCc3c([nH]c4ccccc34)[C@@](C(=O)OC)(c3cc4c(cc3OC)N(C=O)[C@H]3[C@@](O)(C(=O)OC)[C@H](OC(C)=O)[C@]5(CC)C=CCN6CC[C@]43[C@@H]65)C2)C1 [vincristine] + Cn1cnc2c(F)c(Nc3ccc(Br)cc3Cl)c(C(=O)NOCCO)cc21 [selumetinib] (first compound 0.0001 µM, partner dose 0.015 µM) | 86.7 |
| CC[C@]1(O)C[C@H]2CN(CCc3c([nH]c4ccccc34)[C@@](C(=O)OC)(c3cc4c(cc3OC)N(C=O)[C@H]3[C@@](O)(C(=O)OC)[C@H](OC(C)=O)[C@]5(CC)C=CCN6CC[C@]43[C@@H]65)C2)C1 [vincristine] + Nc1cccc2c1CN(C1CCC(=O)NC1=O)C2=O [lenalidomide] (first compound 0.0001 µM, partner dose 1 µM) | 128 |
| N#CC[C@H](C1CCCC1)n1cc(-c2ncnc3[nH]ccc23)cn1 [ruxolitinib] + CCN(CC)CCNC(=O)c1c(C)[nH]c(/C=C2\C(=O)Nc3ccc(F)cc32)c1C [sunitinib] (first compound 1 µM, partner dose 0.4 µM) | 141 |
| COc1cc([C@@H]2c3cc4c(cc3[C@@H](O[C@@H]3O[C@@H]5CO[C@@H](C)O[C@H]5[C@H](O)[C@H]3O)[C@H]3COC(=O)[C@H]23)OCO4)cc(OC)c1O [etoposide] + O=C(/C=C/c1cccnc1)NCCCCC1CCN(C(=O)c2ccccc2)CC1 [FK866] (first compound 0.02 µM, partner dose 0.01 µM) | 232 |
| O=c1[nH]nc(Sc2ncc([N+](=O)[O-])s2)n1-c1ccc2c(c1)OCCO2 + CC(=O)O[C@@]12CO[C@@H]1C[C@H](O)[C@@]1(C)C(=O)[C@H](O)C3=C(C)[C@@H](OC(=O)[C@H](O)[C@@H](NC(=O)OC(C)(C)C)c4ccccc4)C[C@@](O)([C@@H](OC(=O)c4ccccc4)[C@H]21)C3(C)C [Docetaxel] (first compound 0.2 µM, partner dose 0.0001 µM) | 472 |
| N#CC[C@H](C1CCCC1)n1cc(-c2ncnc3[nH]ccc23)cn1 [ruxolitinib] + NC(=O)c1ccc(N(C(N)=O)c2c(F)cccc2F)nc1-c1ccc(F)cc1F [VX702] (first compound 1 µM, partner dose 0.4 µM) | 101 |
| N#CC[C@H](C1CCCC1)n1cc(-c2ncnc3[nH]ccc23)cn1 [ruxolitinib] + Cn1sc(=O)n(Cc2ccccc2)c1=O [TDZD-8] (first compound 1 µM, partner dose 0.4 µM) | 71.3 |
| CC[C@]1(O)C[C@H]2CN(CCc3c([nH]c4ccccc34)[C@@](C(=O)OC)(c3cc4c(cc3OC)N(C=O)[C@H]3[C@@](O)(C(=O)OC)[C@H](OC(C)=O)[C@]5(CC)C=CCN6CC[C@]43[C@@H]65)C2)C1 [vincristine] + C[C@@H](Oc1cc(-c2cnn(C3CCNCC3)c2)cnc1N)c1c(Cl)ccc(F)c1Cl [Crizotinib] (first compound 0.0001 µM, partner dose 0.2 µM) | 188 |
| O=c1[nH]nc(Sc2ncc([N+](=O)[O-])s2)n1-c1ccc2c(c1)OCCO2 + CN(c1ncccc1CNc1nc(Nc2ccc3c(c2)CC(=O)N3)ncc1C(F)(F)F)S(C)(=O)=O [PF562271] (first compound 0.2 µM, partner dose 0.08 µM) | 126 |
| O=C(Nc1cc(C(F)(F)F)cc(C(F)(F)F)c1)c1cc(Cl)ccc1O + Nc1ccn([C@@H]2O[C@H](CO)[C@@H](O)C2(F)F)c(=O)n1 [gemcitabine] (first compound 0.016 µM, partner dose 0.0004 µM) | 60.4 |

Retrieved one by one from the entries so far (two):

| SMILES | cleaved PARP positive nuclei fraction [%] |
| --- | --- |
| CCCCCCCCCCCCCCCCCCOP(=O)([O-])OC1CC[N+](C)(C)CC1 [Perifosine] + Cn1c(=O)n(-c2ccc(C(C)(C)C#N)cc2)c2c3cc(-c4cnc5ccccc5c4)ccc3ncc21 [NVP-BEZ235] (first compound 0.4 µM, partner dose 0.004 µM) | 40.7 |
| Cc1cn(-c2cc(NC(=O)c3ccc(C)c(Nc4nccc(-c5cccnc5)n4)c3)cc(C(F)(F)F)c2)cn1 [nilotinib] + CNC(=O)c1cc(Oc2ccc(NC(=O)Nc3ccc(Cl)c(C(F)(F)F)c3)cc2)ccn1 [sorafenib] (first compound 0.2 µM, partner dose 0.4 µM) | 81.1 |
